According to PubChem BioAssay AID588811 (Broad Institute, 2011):
These results got no clear call from the source, so the numbers are uncertain.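 How the source made its calls: active means compounds lowering signal whose fitted half-maximal concentration is at most twice the top tested dose; inconclusive means flat curve with 30 to 70% inhibition, or poor fit; inactive means the rest.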

Amino acid sequences for entries named in this document (tags omitted). A change or cut given only in a name is not applied to a line headed by its entry.
UniProt P49759: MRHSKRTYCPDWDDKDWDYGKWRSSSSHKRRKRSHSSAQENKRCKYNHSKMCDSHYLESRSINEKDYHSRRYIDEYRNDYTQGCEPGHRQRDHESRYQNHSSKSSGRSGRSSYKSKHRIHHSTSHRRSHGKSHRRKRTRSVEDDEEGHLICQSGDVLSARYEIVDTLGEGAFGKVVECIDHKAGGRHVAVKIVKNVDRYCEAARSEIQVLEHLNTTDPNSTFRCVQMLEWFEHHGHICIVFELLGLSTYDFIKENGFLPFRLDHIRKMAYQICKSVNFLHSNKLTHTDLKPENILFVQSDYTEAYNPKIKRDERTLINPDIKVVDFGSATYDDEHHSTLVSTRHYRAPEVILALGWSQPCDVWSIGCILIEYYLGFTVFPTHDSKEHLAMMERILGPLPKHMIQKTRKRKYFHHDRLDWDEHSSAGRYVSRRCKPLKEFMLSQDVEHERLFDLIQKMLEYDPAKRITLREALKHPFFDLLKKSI

Molecular target: Dual specificity protein kinase CLK1 (Homo sapiens) (UniProt P49759)
Experiment: CLK1 kinase inhibitors, off-target check, dose response, selectivity assay for Dyrk1A inhibitor project, biochemical, cherry-picked samples (AID 588811)
Settings: recombinant CLK1, ADP-Glo luminescence, 2 h; at 12 µM (top of the series)

In the case of `Brc1cc(Br)cc(CNc2nccc(-c3ccc4c(c3)OCO4)n2)c1`, the activity change, negative = inhibition is reported as inconclusive: -57.4%.
